Results from the supplement of paper PMC12823440, “Inhibitors supercharge kinase turnover through native proteolytic circuits” (Nature, 2025).
Where a name gives a salt, the structure may show the parent alone. Some of the results follow. Hit calls seldom repeat between salt and free forms of one compound.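 In K562 cells expressing nanoluciferase-fused kinases, luminescence was recorded at 4 h intervals between 2 and 18 h, normalized as percent of control with DMSO at 100% and a positive control at 0%. A significant (2 sigma) signal drop marks a time point as decreased. The authors' rule for a hit is not shown and takes in more than the number of time points.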

The chains behind the UniProt entries cited, without tags or fusion partners. Where a name states a change or a piece, a line headed by the entry shows the natural chain unless it says otherwise.
UniProt P50613: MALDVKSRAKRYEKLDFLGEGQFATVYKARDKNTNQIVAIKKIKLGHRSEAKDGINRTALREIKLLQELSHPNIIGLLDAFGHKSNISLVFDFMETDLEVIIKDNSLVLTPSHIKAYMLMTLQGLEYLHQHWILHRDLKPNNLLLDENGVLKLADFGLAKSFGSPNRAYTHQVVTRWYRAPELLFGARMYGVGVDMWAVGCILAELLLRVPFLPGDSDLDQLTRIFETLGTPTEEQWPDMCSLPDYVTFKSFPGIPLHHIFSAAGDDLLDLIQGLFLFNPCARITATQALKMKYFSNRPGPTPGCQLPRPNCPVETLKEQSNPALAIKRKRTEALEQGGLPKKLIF
UniProt P50750, whole entry: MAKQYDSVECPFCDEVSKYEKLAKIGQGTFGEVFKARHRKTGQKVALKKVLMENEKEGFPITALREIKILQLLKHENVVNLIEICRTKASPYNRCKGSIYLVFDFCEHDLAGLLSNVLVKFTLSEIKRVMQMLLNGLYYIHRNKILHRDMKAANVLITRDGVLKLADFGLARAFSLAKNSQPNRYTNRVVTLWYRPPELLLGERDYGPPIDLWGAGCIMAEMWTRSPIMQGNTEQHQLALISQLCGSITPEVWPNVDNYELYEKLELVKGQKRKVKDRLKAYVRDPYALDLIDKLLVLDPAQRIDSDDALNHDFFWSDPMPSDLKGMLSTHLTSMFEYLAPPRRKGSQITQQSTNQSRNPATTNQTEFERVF
UniProt O96017, whole entry: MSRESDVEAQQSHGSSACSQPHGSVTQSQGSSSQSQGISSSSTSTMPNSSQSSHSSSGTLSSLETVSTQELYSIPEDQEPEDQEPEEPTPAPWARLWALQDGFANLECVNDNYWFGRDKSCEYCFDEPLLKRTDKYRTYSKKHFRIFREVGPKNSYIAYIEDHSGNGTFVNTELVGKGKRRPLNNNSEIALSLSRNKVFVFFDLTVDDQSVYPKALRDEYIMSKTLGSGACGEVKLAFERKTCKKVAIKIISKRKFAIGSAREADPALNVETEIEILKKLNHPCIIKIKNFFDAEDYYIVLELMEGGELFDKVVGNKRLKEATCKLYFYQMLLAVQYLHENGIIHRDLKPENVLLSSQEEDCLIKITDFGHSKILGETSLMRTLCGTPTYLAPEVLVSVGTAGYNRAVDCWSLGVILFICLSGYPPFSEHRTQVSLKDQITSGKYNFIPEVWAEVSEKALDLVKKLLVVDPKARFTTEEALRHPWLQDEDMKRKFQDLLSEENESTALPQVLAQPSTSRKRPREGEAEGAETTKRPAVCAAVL
UniProt P41240: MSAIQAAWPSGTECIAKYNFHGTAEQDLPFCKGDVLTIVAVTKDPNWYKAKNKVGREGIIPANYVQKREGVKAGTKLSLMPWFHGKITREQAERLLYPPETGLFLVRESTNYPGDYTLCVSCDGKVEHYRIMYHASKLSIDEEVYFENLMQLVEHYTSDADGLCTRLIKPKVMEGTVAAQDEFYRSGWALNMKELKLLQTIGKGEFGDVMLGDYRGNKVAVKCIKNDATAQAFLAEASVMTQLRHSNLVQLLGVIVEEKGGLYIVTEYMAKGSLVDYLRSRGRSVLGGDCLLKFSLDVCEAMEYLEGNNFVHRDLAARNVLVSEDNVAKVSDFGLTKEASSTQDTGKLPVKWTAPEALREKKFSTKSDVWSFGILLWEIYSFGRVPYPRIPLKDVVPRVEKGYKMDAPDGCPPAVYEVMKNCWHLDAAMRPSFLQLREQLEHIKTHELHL
UniProt P48729: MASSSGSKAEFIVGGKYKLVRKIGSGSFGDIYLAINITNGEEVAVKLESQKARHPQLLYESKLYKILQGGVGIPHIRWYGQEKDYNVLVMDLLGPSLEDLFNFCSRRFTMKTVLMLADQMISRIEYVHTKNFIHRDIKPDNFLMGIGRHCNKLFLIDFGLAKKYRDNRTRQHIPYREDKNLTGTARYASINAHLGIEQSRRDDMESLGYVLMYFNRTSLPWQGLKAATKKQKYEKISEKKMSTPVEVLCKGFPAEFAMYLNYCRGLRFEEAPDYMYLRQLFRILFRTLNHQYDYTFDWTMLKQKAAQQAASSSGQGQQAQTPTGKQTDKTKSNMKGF
UniProt P48730: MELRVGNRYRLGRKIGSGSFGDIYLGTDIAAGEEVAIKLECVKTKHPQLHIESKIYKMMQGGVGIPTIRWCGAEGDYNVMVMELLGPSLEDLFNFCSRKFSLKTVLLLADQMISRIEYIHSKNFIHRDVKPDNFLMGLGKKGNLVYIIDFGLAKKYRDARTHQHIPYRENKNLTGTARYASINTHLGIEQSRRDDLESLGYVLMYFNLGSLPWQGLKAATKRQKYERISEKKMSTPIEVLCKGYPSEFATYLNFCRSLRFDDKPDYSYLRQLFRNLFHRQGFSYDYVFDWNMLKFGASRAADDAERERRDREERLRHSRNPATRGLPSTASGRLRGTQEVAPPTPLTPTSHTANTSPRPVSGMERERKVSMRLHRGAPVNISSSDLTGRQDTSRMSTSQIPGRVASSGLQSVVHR
UniProt Q08345: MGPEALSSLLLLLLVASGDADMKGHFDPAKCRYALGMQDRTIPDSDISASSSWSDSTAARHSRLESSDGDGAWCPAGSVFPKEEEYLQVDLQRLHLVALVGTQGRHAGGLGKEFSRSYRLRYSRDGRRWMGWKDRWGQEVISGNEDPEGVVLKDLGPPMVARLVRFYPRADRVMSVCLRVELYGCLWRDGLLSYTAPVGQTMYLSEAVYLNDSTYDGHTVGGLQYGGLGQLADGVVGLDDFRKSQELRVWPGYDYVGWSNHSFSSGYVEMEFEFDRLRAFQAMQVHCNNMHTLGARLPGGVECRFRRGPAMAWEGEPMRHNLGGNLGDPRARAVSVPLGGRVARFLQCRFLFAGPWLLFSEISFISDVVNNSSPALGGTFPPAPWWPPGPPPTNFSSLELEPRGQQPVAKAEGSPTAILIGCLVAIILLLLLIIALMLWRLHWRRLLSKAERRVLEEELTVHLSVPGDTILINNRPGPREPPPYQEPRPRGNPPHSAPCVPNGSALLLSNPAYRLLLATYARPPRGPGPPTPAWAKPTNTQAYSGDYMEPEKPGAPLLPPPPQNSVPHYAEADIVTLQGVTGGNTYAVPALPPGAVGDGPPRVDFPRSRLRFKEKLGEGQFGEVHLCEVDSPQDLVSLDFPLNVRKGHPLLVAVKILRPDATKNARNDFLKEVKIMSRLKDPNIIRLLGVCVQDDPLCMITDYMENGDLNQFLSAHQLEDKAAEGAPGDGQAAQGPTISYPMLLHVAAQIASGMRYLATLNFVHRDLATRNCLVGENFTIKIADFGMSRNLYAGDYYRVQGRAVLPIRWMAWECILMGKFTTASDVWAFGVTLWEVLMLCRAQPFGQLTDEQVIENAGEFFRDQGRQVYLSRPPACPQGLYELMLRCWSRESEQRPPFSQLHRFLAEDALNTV
UniProt Q9Y463, whole entry, looked up: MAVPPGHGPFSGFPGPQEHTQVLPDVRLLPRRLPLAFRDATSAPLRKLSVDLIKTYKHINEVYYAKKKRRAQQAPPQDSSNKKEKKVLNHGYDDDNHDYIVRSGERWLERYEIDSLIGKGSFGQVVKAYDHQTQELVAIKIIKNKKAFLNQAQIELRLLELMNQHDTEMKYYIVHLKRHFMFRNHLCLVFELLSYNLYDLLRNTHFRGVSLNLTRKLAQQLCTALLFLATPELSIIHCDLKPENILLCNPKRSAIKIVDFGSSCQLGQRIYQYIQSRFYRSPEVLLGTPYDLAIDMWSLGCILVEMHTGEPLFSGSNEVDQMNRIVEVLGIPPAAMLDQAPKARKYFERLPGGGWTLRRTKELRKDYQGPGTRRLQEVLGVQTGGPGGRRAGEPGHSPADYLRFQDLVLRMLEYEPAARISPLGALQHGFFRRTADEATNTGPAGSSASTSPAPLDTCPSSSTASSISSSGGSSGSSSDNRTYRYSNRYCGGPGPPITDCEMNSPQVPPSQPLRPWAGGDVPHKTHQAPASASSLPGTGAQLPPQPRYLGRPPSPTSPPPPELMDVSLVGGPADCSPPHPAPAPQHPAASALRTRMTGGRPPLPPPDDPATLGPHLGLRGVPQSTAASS
UniProt Q92630: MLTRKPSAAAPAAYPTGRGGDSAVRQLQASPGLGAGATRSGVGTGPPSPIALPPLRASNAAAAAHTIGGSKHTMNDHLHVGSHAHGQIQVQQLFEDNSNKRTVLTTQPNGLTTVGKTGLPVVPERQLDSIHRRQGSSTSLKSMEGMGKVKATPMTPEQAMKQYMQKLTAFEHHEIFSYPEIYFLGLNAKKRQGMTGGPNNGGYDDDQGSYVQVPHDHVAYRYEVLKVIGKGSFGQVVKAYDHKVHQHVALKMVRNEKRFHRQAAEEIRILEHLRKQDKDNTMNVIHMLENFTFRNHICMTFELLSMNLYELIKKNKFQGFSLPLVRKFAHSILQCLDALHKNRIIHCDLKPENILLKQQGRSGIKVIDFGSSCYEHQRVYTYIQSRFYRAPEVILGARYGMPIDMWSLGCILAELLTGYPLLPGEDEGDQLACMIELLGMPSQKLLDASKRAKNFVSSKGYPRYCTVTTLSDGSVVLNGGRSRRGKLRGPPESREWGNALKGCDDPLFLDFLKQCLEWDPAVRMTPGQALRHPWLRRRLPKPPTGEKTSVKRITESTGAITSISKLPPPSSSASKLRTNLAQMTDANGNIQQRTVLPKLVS
UniProt P21860, whole entry: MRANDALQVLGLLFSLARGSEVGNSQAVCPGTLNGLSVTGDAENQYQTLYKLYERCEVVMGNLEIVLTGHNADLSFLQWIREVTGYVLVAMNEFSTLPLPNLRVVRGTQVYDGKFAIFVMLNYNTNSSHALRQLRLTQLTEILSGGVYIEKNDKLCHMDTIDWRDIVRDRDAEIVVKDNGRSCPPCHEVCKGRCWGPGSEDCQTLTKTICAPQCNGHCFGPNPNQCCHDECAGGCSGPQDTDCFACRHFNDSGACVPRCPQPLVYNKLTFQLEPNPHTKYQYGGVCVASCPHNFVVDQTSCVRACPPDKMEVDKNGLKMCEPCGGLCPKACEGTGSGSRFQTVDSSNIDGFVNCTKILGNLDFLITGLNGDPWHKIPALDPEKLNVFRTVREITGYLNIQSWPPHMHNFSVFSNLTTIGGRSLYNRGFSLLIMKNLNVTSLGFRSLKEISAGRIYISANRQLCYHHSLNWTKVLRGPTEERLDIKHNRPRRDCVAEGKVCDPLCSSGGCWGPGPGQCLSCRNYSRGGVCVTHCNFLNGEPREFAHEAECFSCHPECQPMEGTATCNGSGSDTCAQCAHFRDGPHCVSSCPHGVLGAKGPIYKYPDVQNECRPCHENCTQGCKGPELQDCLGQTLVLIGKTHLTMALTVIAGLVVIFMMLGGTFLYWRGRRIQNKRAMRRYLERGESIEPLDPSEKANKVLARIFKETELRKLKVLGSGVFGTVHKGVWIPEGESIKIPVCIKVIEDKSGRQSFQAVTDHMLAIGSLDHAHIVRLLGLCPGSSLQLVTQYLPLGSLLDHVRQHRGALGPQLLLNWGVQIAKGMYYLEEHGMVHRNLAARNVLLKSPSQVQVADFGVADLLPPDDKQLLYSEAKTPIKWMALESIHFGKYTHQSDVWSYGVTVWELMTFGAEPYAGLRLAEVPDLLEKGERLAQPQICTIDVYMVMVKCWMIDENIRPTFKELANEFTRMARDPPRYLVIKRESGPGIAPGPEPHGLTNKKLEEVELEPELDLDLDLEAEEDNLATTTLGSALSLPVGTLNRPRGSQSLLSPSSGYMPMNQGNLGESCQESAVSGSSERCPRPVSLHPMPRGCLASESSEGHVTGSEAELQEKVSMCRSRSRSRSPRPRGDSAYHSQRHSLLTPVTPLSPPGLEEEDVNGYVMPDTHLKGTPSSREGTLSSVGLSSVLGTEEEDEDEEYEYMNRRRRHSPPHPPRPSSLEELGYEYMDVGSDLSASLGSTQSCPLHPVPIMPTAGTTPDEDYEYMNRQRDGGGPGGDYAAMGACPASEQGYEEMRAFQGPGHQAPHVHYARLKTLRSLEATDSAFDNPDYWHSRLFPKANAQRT

Key:
Experiment in all cases: kinase-Nluc reporter destabilization hit call (1 = scored as downregulated) (binary); higher = compound decreases kinase abundance
CDK7 = CDK7 (UniProt P50613); conditions: K562, 2-18 h
CDK9 = CDK9 (UniProt P50750); conditions: K562, 2-18 h
CHEK2 = CHEK2 (UniProt O96017); conditions: K562, 2-18 h
CSK = CSK (UniProt P41240); conditions: K562, 2-18 h
CSNK1A1 = CSNK1A1 (UniProt P48729); conditions: K562, 2-18 h
CSNK1D = CSNK1D (UniProt P48730); conditions: K562, 2-18 h
DDR1 = DDR1 (UniProt Q08345); conditions: K562, 2-18 h
DYRK1B = DYRK1B (UniProt Q9Y463); conditions: K562, 2-18 h
DYRK2 = DYRK2 (UniProt Q92630); conditions: K562, 2-18 h
EGFR = EGFR (UniProt P00533); conditions: 10 µM; K562; 2-18 h
EGFR_G719S = EGFR_G719S (UniProt P00533); conditions: 10 µM; K562; 2-18 h
EGFR_G719S_T790M = EGFR_G719S_T790M (UniProt P00533); conditions: 10 µM; K562; 2-18 h
EGFR_L718V = EGFR_L718V (UniProt P00533); conditions: 10 µM; K562; 2-18 h
EGFR_L858R = EGFR_L858R (UniProt P00533); conditions: 10 µM; K562; 2-18 h
EGFR_L861Q = EGFR_L861Q (UniProt P00533); conditions: 10 µM; K562; 2-18 h
EGFR_T790M = EGFR_T790M (UniProt P00533); conditions: 10 µM; K562; 2-18 h
EPHA2 = EPHA2 (UniProt P29317); conditions: K562, 2-18 h
ERBB3 = ERBB3 (UniProt P21860); conditions: K562, 2-18 h
[1] = target: ERBB4_R711C (clone: ERBB4_mut) (UniProt Q15303); conditions: K562, 2-18 h
CSF1R = CSF1R (UniProt P07333); conditions: K562, 2-18 h

Measured: kinase-Nluc reporter destabilization hit call

COc1ccc(-c2c[nH]c3nccc(-c4ccsc4)c23)c(OC)c1
inactive: CDK7; 10 µM 0 | CDK9; 10 µM 0 | CHEK2; 10 µM 0 | CSK; 10 µM 0 | CSNK1A1; 10 µM 0 | CSNK1D; 10 µM 0 | DDR1; 10 µM 0 | DYRK1B; 10 µM 0 | DYRK2; 10 µM 0 | EGFR 0 | EGFR_G719S 0 | EGFR_G719S_T790M 0 | EGFR_L718V 0 | EGFR_L858R 0 | EGFR_L861Q 0 | EGFR_T790M 0 | EPHA2; 10 µM 0 | ERBB3; 10 µM 0 | [1]; 10 µM 0

O=C1Cc2c([nH]c3ccc(Br)cc23)-c2ccccc2N1 [Kenpaullone]
inactive: CDK7; 10 µM 0 | CDK9; 10 µM 0 | CHEK2; 10 µM 0 | CSF1R; 10 µM 0 | CSK; 10 µM 0 | CSNK1A1; 10 µM 0 | CSNK1D; 10 µM 0 | DDR1; 10 µM 0 | DYRK1B; 10 µM 0 | DYRK2; 10 µM 0 | EPHA2; 10 µM 0 | ERBB3; 10 µM 0 | [1]; 10 µM 0

CC1(C)CNc2cc(NC(=O)c3cccnc3NCc3ccncc3)ccc21 [Motesanib]
inactive: CDK7; 2.5 µM 0 | CDK9; 2.5 µM 0 | CHEK2; 2.5 µM 0 | CSK; 2.5 µM 0 | CSNK1A1; 2.5 µM 0 | CSNK1D; 2.5 µM 0 | DYRK1B; 2.5 µM 0 | DYRK2; 2.5 µM 0 | EPHA2; 2.5 µM 0 | ERBB3; 2.5 µM 0 | [1]; 2.5 µM 0

CCOc1cc2ncc(C#N)c(Nc3ccc(F)c(Cl)c3)c2cc1NC(=O)/C=C/CN(C)C [Pelitinib]
inactive: CDK7; 2.5 µM 0 | CDK9; 2.5 µM 0 | CHEK2; 2.5 µM 0 | CSF1R; 2.5 µM 0 | CSK; 2.5 µM 0 | CSNK1A1; 2.5 µM 0 | CSNK1D; 2.5 µM 0 | DDR1; 2.5 µM 0 | DYRK1B; 2.5 µM 0 | DYRK2; 2.5 µM 0 | ERBB3; 2.5 µM 0 | [1]; 2.5 µM 0
active: EPHA2; 2.5 µM 1

COc1ccc(CNC(=O)Nc2ncc([N+](=O)[O-])s2)cc1
inactive: CDK7; 2.5 µM 0 | CDK9; 2.5 µM 0 | CHEK2; 2.5 µM 0 | CSF1R; 2.5 µM 0 | CSK; 2.5 µM 0 | CSNK1A1; 2.5 µM 0 | DDR1; 2.5 µM 0 | DYRK1B; 2.5 µM 0 | DYRK2; 2.5 µM 0 | EPHA2; 2.5 µM 0 | ERBB3; 2.5 µM 0 | [1]; 2.5 µM 0

O=S(=O)(c1cccc2c(O)nccc12)N1CCCNCC1 [Hydroxyfasudil (hydrochloride)]
inactive: CDK7; 10 µM 0 | CDK9; 10 µM 0 | CHEK2; 10 µM 0 | CSF1R; 10 µM 0 | CSK; 10 µM 0 | CSNK1A1; 10 µM 0 | CSNK1D; 10 µM 0 | DDR1; 10 µM 0 | DYRK1B; 10 µM 0 | DYRK2; 10 µM 0 | EPHA2; 10 µM 0 | ERBB3; 10 µM 0 | [1]; 10 µM 0
